Reference: PMC11399625
Like-named read-outs stand apart in the source and are kept apart here. No constants are given. Whether binding was seen depends on the method and setting. In cells and extracts the contact can be indirect. Some entries that bind do so weakly or less than the wild type. For some assays here: Sequences can lack the tags named with a protein.

By UniProt entry, the sequences of proteins in these tests, tags left out.
UniProt P03071: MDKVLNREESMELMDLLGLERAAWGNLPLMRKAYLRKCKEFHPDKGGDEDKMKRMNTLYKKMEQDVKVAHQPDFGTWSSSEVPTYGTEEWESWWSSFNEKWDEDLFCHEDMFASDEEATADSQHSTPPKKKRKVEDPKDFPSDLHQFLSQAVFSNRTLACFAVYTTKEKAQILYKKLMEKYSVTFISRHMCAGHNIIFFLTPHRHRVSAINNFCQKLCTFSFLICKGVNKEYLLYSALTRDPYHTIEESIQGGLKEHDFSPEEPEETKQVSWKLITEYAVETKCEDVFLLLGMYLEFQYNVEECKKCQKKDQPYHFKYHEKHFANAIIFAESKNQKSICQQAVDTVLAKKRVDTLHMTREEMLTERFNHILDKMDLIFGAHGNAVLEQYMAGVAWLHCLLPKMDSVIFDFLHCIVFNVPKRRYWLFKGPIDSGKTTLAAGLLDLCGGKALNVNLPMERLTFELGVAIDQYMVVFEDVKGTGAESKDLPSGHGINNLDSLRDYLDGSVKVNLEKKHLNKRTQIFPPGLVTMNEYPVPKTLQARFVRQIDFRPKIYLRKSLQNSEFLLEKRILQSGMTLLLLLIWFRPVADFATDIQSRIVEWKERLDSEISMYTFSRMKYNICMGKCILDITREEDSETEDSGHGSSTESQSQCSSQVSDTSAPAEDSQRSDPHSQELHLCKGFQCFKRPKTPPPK

B1: FLAG-tagged wild-type MxA (human myxovirus resistance protein A) (protein, UniProt P20591 1-662)
chain: MVVSEVDIAKADPAAASHPLLLNGDATVAQKNPGSVAENNLCSQYEEKVRPCIDLIDSLRALGVEQDLALPAIAVIGDQSSGKSSVLEALSGVALPRGSGIVTRCPLVLKLKKLVNEDKWRGKVSYQDYEIEISDASEVEKEINKAQNAIAGEGMGISHELITLEISSRDVPDLTLIDLPGITRVAVGNQPADIGYKIKTLIKKYIQRQETISLVVVPSNVDIATTEALSMAQEVDPEGDRTIGILTKPDLVDKGTEDKVVDVVRNLVFHLKKGYMIVKCRGQQEIQDQLSLSEALQREKIFFENHPYFRDLLEEGKATVPCLAEKLTSELITHICKSLPLLENQIKETHQRITEELQKYGVDIPEDENEKMFFLIDKVNAFNQDITALMQGEETVGEEDIRLFTRLRHEFHKWSTIIENNFQEGHKILSRKIQKFENQYRGRELPGFVNYRTFETIVKQQIKALEEPAVDMLHTVTDMVRLAFTDVSIKNFEEFFNLHRTAKSKIEDIRAEQEREGEKLIRLHFQMEQIVYCQDQVYRGALQKVREKELEEEKKKKSWDFGAFQSSSATDSSMEEIFQHLMAYHQEASKRISSHIPLIIQFFMLQTYGQQLQKAMLQLLQDKDTYSWLLKERSDTSDKRKFLKERLARLTQARRRLAQFPG

Experiments:
[1] = target: BKPyV TAg (BK polyomavirus large T antigen) (BK polyomavirus) (UniProt P03071); assay: co-IP; HRPTECs co-transfected with TAg plasmid and FLAG-tagged MxA (WT or mutant) for 12 h; lysis in 50 mM Tris pH 8.0, 150 mM NaCl, 1 mM EDTA, 0.5 % Nonidet P-40; immunoprecipitation with anti-SV40 TAg antibody on protein G agarose; immunoblot with anti-FLAG
[2] = target: BKPyV TAg (BK polyomavirus large T antigen) (BK polyomavirus) (UniProt P03071); assay: as above; remark: listed apart in the source

Molecule	binding [1]	binding [2]
FLAG-tagged MxA K83A mutant (from UniProt P20591 1-662)	binds	–
B1	–	binds
